Values quoted from earlier work, collected in patent US20240383923A1, “HETEROARYL DERIVATIVE AND USE THEREOF” (VORONOI INC., priority 2022, published 2024).
At least one structure is not confirmed: it was looked up by name or label, or the drawing left a doubt.

Tested on: HER2 mutant cancers
Conditions: phase 1 and 2 clinical trials; cited from earlier work

Structure (SMILES): CN(C)C/C=C/C(=O)Nc1cc2c(Nc3ccc(F)c(Cl)c3)ncnc2cc1O[C@H]1CCOC1 [afatinib]
- response of patients with HER2 mutation: partial responses
